Measurements reported in PubChem BioAssay AID1259424 (University of Nebraska Medical Center, 2018)
This is one part, drawn at random, of about 14,000 reagents. 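Higher correlation or smaller distance means closer resemblance to KSR1 loss; control wells, including KSR1 knockdowns, recur on many plates.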 Not all columns of the deposit are shown. Not stated in the record: the time to read-out.

Screen: 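Seek colon cancer survival genes behaving like KSR1, using a six-gene signature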 (primary screen)
Cell system: human HCT116 colon cancer cells
Knock-down reagent: siRNA pool against human genes, 50 nM
Measurement: 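Log2 levels of six mRNAs (branched-DNA multiplex), adjusted by two reference genes and the non-targeting median, then scored against the average KSR1 knockdown pattern as Pearson r and euclidean distance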
Scale: mean correlation with KSR1 profile: higher = expression change more like KSR1 knockdown

gene,mean correlation with KSR1 profile
CCDC174,-0.416
PITRM1,0.409
SYNC,0.147
KIF20A,-0.141
SFI1,-0.182
RAPGEF4,0.693
TAF1C,-0.127
ATP13A4,-0.181
KLHDC4,-0.374
SELENOO,0.287
FBXO30,0.401
SLC45A2,-0.124
C4A,0.136
CREB3L3,0.211
BGLAP,0.142

Targets above whose target name starts with K or k:
gene,mean correlation with KSR1 profile
KIF20A,-0.141
KLHDC4,-0.374

The list goes on.
gene,mean correlation with KSR1 profile
CDKN1B,0.762
C22orf31,0.265
OSBPL1A,0.601
DUSP5,0.599
DDX21,-0.184
FBXL6,-0.0811
MNS1,0.339
NDUFA2,-0.0522
FCN1,-0.275
IPPK,-0.164
ARG1,-0.0638
RPS5,-0.0663
SLC49A3,0.866
WDR25,0.446
EPM2A,-0.495
URI1,-0.519
NHEJ1,0.562
FERRY3,0.177
PSMG1,-0.321
